# Measurements: the supplement of paper PMC8728848
# The other results are listed elsewhere or left out.
# B1: PX9961K-bvu-480-28-480 (Bacteroides vulgatus) (protein)
# chain: NKIPTTMAFRTVTDVDNAVNGLYDLMSGSGYYGAAMFAYGDMKGDDMQSSEESGVCNTCYMFNHRPNSLNAGSLWGRPFYILREAWNILNAIAEGKIESGDEKKLNALKGETMAVIALCQFDLTRCFGYPYTKDKGASLGAPLIDHLVGTYENPPRSTVAQAYDFIIETLEEAVTLMSEEKNNGRMNKYAARALLARIYLYHDDNRKAFDLADQLIKDADTSGSYALYPHEKYVAAWSVEAKFGSESFFEIANSVDDTPGRDSWGYLLNWYGYQKGFVTQKYAEQMLADPGDVRGHLLEENKYAGKTVWWLYKLRGTDLKTAPLECNNVVLRLSEVYLIAAEAGCKLGGDAAVQGLGYLNEIVKRGNPDNEVTMADYTLDRVLDERSKELVGEGHRFFDLLRNGKTIVRKGGYHLPSVDEEVDWDFYKCVLPIPEDQFIFSPEMEQNPGYPKN
# Tests used:
# Experiment in all cases: glycan array binding signal (z-score within array); higher = stronger binding
# Settings in all cases: glycan notation: IUPAC condensed, linker removed
# [1] = target: GlcNAc(b1-3)Gal(b1-4)GlcNAc(b1-3)Gal(b1-4)GlcNAc(b1-3)GalNAc
# Method in brief: (§1)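 From the Consortium for Functional Glycomics database, 3228 arrays were curated, keeping only those whose protein sequence was available. Binding is given as a within-array Z-score averaged across arrays sharing a protein sequence and across linkers. Negative Z-scores can be read as non-binding.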
# [2] = target: GlcNAc(b1-3)Gal(b1-4)GlcNAc(b1-3)GalNAc
# Method in brief: as §1
# [3] = target: GlcNAc(b1-3)Gal(b1-4)GlcNAc(b1-3)[GlcNAc(b1-3)Gal(b1-4)GlcNAc(b1-3)]GalNAc
# Method in brief: as §1
# [4] = target: GlcNAc(b1-3)Gal(b1-4)GlcNAc(b1-6)[Gal(b1-3)]GalNAc
# Method in brief: as §1
# [5] = target: GlcNAc(b1-3)Gal(b1-4)GlcNAc(b1-6)[GlcNAc(b1-3)Gal(b1-3)]GalNAc
# Method in brief: as §1
# [6] = target: GlcNAc(b1-3)Gal(b1-4)GlcNAc(b1-6)[GlcNAc(b1-3)]Gal(b1-4)GlcNAc
# Method in brief: as §1
# GlcNAc(b1-3)GalNAc = target: GlcNAc(b1-3)GalNAc
# Method in brief: as §1
# GlcNAc(b1-3)Man = target: GlcNAc(b1-3)Man
# Method in brief: as §1
# [7] = target: GlcNAc(b1-3)[GlcNAc(b1-4)][GlcNAc(b1-6)]GlcNAc
# Method in brief: as §1
# [8] = target: GlcNAc(b1-3)[GlcNAc(b1-6)]Gal(b1-4)GlcNAc
# Method in brief: as §1
# [9] = target: GlcNAc(b1-3)[GlcNAc(b1-6)]GalNAc
# Method in brief: as §1
# [10] = target: GlcNAc(b1-4)Gal(b1-4)GlcNAc
# Method in brief: as §1
# GlcNAc(b1-4)GlcNAc = target: GlcNAc(b1-4)GlcNAc
# Method in brief: as §1
# [11] = target: GlcNAc(b1-4)GlcNAc(b1-4)GlcNAc
# Method in brief: as §1
# [12] = target: GlcNAc(b1-4)GlcNAc(b1-4)GlcNAc(b1-4)GlcNAc(b1-4)GlcNAc
# Method in brief: as §1
# [13] = target: GlcNAc(b1-4)GlcNAc(b1-4)GlcNAc(b1-4)GlcNAc(b1-4)GlcNAc(b1-4)GlcNAc
# Method in brief: as §1
# [14] = target: GlcNAc(b1-4)[GlcNAc(b1-6)]GalNAc
# Method in brief: as §1
# [15] = target: GlcNAc(b1-6)Gal(b1-4)GlcNAc
# Method in brief: as §1
# GlcNAc(b1-6)GalNAc = target: GlcNAc(b1-6)GalNAc
# Method in brief: as §1
# [16] = target: GlcNAc6S(b1-3)Gal(b1-4)GlcNAc
# Method in brief: as §1
# Kdn(a2-3)Gal(b1-3)GalNAc = target: Kdn(a2-3)Gal(b1-3)GalNAc
# Method in brief: as §1
# Kdn(a2-3)Gal(b1-3)GlcNAc = target: Kdn(a2-3)Gal(b1-3)GlcNAc
# Method in brief: as §1
# Kdn(a2-3)Gal(b1-4)Glc = target: Kdn(a2-3)Gal(b1-4)Glc
# Method in brief: as §1
# Kdn(a2-3)Gal(b1-4)GlcNAc = target: Kdn(a2-3)Gal(b1-4)GlcNAc
# Method in brief: as §1
# [17] = target: Kdn(a2-3)Gal(b1-4)[Fuc(a1-3)]GlcNAc
# Method in brief: as §1
# Kdn(a2-6)Gal(b1-4)GlcNAc = target: Kdn(a2-6)Gal(b1-4)GlcNAc
# Method in brief: as §1
# [18] = target: Man(a1-2)Man(a1-2)Man(a1-3)Man
# Method in brief: as §1
# [19] = target: Man(a1-2)Man(a1-2)Man(a1-6)[Man(a1-3)]Man
# Method in brief: as §1
# Man(a1-2)Man(a1-3)Man = target: Man(a1-2)Man(a1-3)Man
# Method in brief: as §1
# [20] = target: Man(a1-2)Man(a1-3)[Man(a1-2)Man(a1-6)]Man
# Method in brief: as §1
# [21] = target: Man(a1-2)Man(a1-3)[Man(a1-2)Man(a1-6)]Man(a1-6)[Man(a1-2)Man(a1-2)Man(a1-3)]Man
# Method in brief: as §1
# [22] = target: Man(a1-2)Man(a1-3)[Man(a1-2)Man(a1-6)]Man(a1-6)[Man(a1-2)Man(a1-2)Man(a1-3)]Man(b1-4)GlcNAc(b1-4)GlcNAc
# Method in brief: as §1
# [23] = target: Man(a1-2)Man(a1-3)[Man(a1-6)]Man(a1-6)[Man(a1-2)Man(a1-3)]Man(b1-4)GlcNAc(b1-4)GlcNAc
# Method in brief: as §1
# [24] = target: Man(a1-2)Man(a1-6)[Man(a1-3)]Man(a1-6)[Man(a1-2)Man(a1-2)Man(a1-3)]Man
# Method in brief: as §1
# [25] = target: Man(a1-2)Man(a1-6)[Man(a1-3)]Man(a1-6)[Man(a1-2)Man(a1-2)Man(a1-3)]Man(b1-4)GlcNAc(b1-4)GlcNAc
# Method in brief: as §1
# Man(a1-3)[Man(a1-6)]Man = target: Man(a1-3)[Man(a1-6)]Man
# Method in brief: as §1
# [26] = target: Man(a1-3)[Man(a1-6)]Man(a1-6)[Man(a1-2)Man(a1-3)]Man(b1-4)GlcNAc(b1-4)GlcNAc
# Method in brief: as §1
# [27] = target: Man(a1-3)[Man(a1-6)]Man(a1-6)[Man(a1-3)]Man
# Method in brief: as §1
# [28] = target: Man(a1-3)[Man(a1-6)]Man(a1-6)[Man(a1-3)]Man(b1-4)GlcNAc(b1-4)GlcNAc
# Method in brief: as §1
# [29] = target: Man(a1-3)[Man(a1-6)]Man(b1-4)GlcNAc(b1-4)GlcNAc
# Method in brief: as §1
# [30] = target: Man(a1-3)[Man(a1-6)]Man(b1-4)GlcNAc(b1-4)[Fuc(a1-6)]GlcNAc
# Method in brief: as §1
# Man(a1-6)Man = target: Man(a1-6)Man
# Method in brief: as §1
# Man(b1-4)GlcNAc = target: Man(b1-4)GlcNAc
# Method in brief: as §1
# MurNAc(b1-4)GlcNAc = target: MurNAc(b1-4)GlcNAc
# Method in brief: as §1
# Neu5Ac(a2-3)Gal = target: Neu5Ac(a2-3)Gal
# Method in brief: as §1
binder,measurement,setting,value
B1,glycan array binding signal (z-score),[1],-0.266
same,glycan array binding signal (z-score),[2],-0.134
same,glycan array binding signal (z-score),[3],-0.207
same,glycan array binding signal (z-score),[4],-0.277
same,glycan array binding signal (z-score),[5],-0.158
same,glycan array binding signal (z-score),[6],1.77
same,glycan array binding signal (z-score),GlcNAc(b1-3)GalNAc,0.105
same,glycan array binding signal (z-score),GlcNAc(b1-3)Man,-0.574
same,glycan array binding signal (z-score),[7],0.078
same,glycan array binding signal (z-score),[8],-0.687
same,glycan array binding signal (z-score),[9],-0.501
same,glycan array binding signal (z-score),[10],-0.298
same,glycan array binding signal (z-score),GlcNAc(b1-4)GlcNAc,-0.088
same,glycan array binding signal (z-score),[11],0.093
same,glycan array binding signal (z-score),[12],-0.583
same,glycan array binding signal (z-score),[13],-0.762
same,glycan array binding signal (z-score),[14],0.135
same,glycan array binding signal (z-score),[15],0.058
same,glycan array binding signal (z-score),GlcNAc(b1-6)GalNAc,-0.312
same,glycan array binding signal (z-score),[16],1.58
same,glycan array binding signal (z-score),Kdn(a2-3)Gal(b1-3)GalNAc,-0.16
same,glycan array binding signal (z-score),Kdn(a2-3)Gal(b1-3)GlcNAc,0.083
same,glycan array binding signal (z-score),Kdn(a2-3)Gal(b1-4)Glc,0.035
same,glycan array binding signal (z-score),Kdn(a2-3)Gal(b1-4)GlcNAc,-0.958
same,glycan array binding signal (z-score),[17],-0.426
same,glycan array binding signal (z-score),Kdn(a2-6)Gal(b1-4)GlcNAc,0.278
same,glycan array binding signal (z-score),[18],-0.841
same,glycan array binding signal (z-score),[19],0.141
same,glycan array binding signal (z-score),Man(a1-2)Man(a1-3)Man,-0.335
same,glycan array binding signal (z-score),[20],-0.393
same,glycan array binding signal (z-score),[21],-0.299
same,glycan array binding signal (z-score),[22],0.437
same,glycan array binding signal (z-score),[23],-0.959
same,glycan array binding signal (z-score),[24],-0.615
same,glycan array binding signal (z-score),[25],-1.13
same,glycan array binding signal (z-score),Man(a1-3)[Man(a1-6)]Man,0.753
same,glycan array binding signal (z-score),[26],-0.245
same,glycan array binding signal (z-score),[27],2.06
same,glycan array binding signal (z-score),[28],0.139
same,glycan array binding signal (z-score),[29],-0.23
same,glycan array binding signal (z-score),[30],-0.601
same,glycan array binding signal (z-score),Man(a1-6)Man,0.297
same,glycan array binding signal (z-score),Man(b1-4)GlcNAc,-0.55
same,glycan array binding signal (z-score),MurNAc(b1-4)GlcNAc,0.833
same,glycan array binding signal (z-score),Neu5Ac(a2-3)Gal,-0.477

# Reprinted at random: three records from the list
binder,measurement,setting,value
B1,glycan array binding signal (z-score),[6],1.77
same,glycan array binding signal (z-score),[27],2.06
same,glycan array binding signal (z-score),[30],-0.601
